Patent publication US4278612A, “2-Chloro-2-alkyl substituted peroxyesters” (priority 1979, dated 1981)

Experiment: Hot block gel tests with polyester resin
Conditions: 1% wt peroxide, block 180 ± 1° F. (82° C.)

SMILES	Peak Temp (SET 1) [°F.]	Peak Temp (SET 2) [°F.]	Peak Temp (SET 3) [°F.]
O=C(OOC(=O)c1ccccc1)c1ccccc1 [BZP, Benzoyl Peroxide, reference compound]	248	251	252
CCCC(C)(Cl)C(=O)OOC(C)(C)CCC(C)(C)OOC(=O)C(C)(Cl)CCC (centres unmarked) [DM--DCMPeH, 2,5-Dimethyl-2,5-di(2-chloro-2-methylpentanoylperoxy) hexane]	–	–	263
CC(C)(C#CC(C)(C)OOC(=O)C(C)(C)Cl)OOC(=O)C(C)(C)Cl [DM--DCMPrH, 2,5-dimethyl-2,5-di(2-chloro-2-methylpropionylperoxy) hexyne-3]	–	–	255
CCC(C)(C)OOC(=O)C(Cl)(CC)CC [TAPCEB, t-Amyl peroxy 2-chloro-2-ethyl butyrate]	–	264	–
CCC(C)(C)OOC(=O)C(C)(C)Cl [TAPCMPr, t-Amyl peroxy 2-chloro-2-methyl propionate]	262	–	–
CCC(Cl)(CC)C(=O)OOC(C)(C)C [TBPCEB, t-Butyl peroxy 2-chloro-2-ethyl butyrate]	–	266	–
CCCCC(Cl)(CC)C(=O)OOC(C)(C)C (centres unmarked) [TBPCEH, t-Butyl peroxy 2-chloro-2-ethyl hexanoate]	260	269	264
CCCC(C)(Cl)C(=O)OOC(C)(C)C (centres unmarked) [TBPCMPe, t-Butyl peroxy 2-chloro-2-methyl pentanoate]	254	–	–
CC(C)(C)OOC(=O)C(C)(C)Cl [TBPCMPr, t-Butyl peroxy 2-chloro-2-methyl propionate, reference compound]	259	268	–
